Measurements as given in the supplement of paper PMC6411743.
± gives the standard deviation of the averaged measurements. The list shows a part of the results.

Target: T1, CSTF2T (UniProt Q9H0L4)
T1 sequence (whole entry): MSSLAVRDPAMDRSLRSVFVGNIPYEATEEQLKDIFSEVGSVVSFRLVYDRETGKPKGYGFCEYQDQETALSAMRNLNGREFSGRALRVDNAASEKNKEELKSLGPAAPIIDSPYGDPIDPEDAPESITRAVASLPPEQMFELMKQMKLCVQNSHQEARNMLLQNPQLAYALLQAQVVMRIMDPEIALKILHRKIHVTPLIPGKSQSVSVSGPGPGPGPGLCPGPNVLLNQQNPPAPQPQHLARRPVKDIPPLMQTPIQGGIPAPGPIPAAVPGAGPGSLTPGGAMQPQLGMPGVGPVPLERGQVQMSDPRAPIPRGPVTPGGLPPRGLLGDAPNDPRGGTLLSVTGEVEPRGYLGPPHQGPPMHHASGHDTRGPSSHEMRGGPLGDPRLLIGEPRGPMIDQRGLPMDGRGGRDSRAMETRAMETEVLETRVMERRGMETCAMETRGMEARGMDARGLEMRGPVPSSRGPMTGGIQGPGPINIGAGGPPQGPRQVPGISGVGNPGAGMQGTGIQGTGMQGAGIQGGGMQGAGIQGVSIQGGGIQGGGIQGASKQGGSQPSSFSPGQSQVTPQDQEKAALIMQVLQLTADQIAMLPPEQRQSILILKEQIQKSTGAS
Assay: NP40-soluble protein abundance relative to vehicle (solubility fold change) (ratio); higher = more soluble protein in presence of GTP
Experimental: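 Solubility proteome profiling in Jurkat crude lysate. Lysate was treated with Mg-GTP (0.1-10 mM) for 10 min at room temperature and 3 min at 37 °C, then solubilised with 0.8% NP40 and benzonase, followed by ultracentrifugation. Proteins were quantified by TMT10 LC-MS/MS; the value is the NP40-soluble abundance relative to the NP40-processed vehicle, from 3 independent experiments.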

Q: Nc1nc2c(ncn2[C@@H]2O[C@H](COP(=O)(O)OP(=O)(O)OP(=O)(O)O)[C@@H](O)[C@H]2O)c(=O)[nH]1 [guanosine triphosphate] was tested. Which NP40-soluble protein abundance (concentration: 0.1mM) did it give?
A: 0.972 ± 0.025

Q: What about the NP40-soluble protein abundance (concentration: 0.5mM) of the same molecule?
A: 0.925 ± 0.02

Q: What about the NP40-soluble protein abundance (concentration: 1mM) of the same molecule?
A: 1.04 ± 0.051

Q: What about the NP40-soluble protein abundance (concentration: 2mM) of the same molecule?
A: 1.04 ± 0.02

Q: What about the NP40-soluble protein abundance (concentration: 4mM) of the same molecule?
A: 1.03 ± 0.048

Q: What about the NP40-soluble protein abundance (concentration: 6mM) of the same molecule?
A: 1.04 ± 0.035

Q: What about the NP40-soluble protein abundance (concentration: 8mM) of the same molecule?
A: 1.08 ± 0.05

Q: And the NP40-soluble protein abundance (concentration: 10mM)?
A: 1.07 ± 0.07
